Test results: the supplement of paper PMC10689618
Counter-ions that a name gives are not always drawn. The list shows a part of the results. Repeats are few or missing, and single values can be far off.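 Primary human fetal astrocytes engulfed labelled rat cortical synaptosomes, measured as a red/green ratio corrected for calcein live-cell signal and scaled to the plate median. Toxicity meant calcein falling over 30%; decreased phagocytosis meant below 70% of median above 5 µM.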

Tests used:
Conditions in all cases: 24 h
[1] = test system: Human fetal astrocytes; experiment: loss of total cells relative to no-compound high-control median (toxicity); higher = more toxic (fewer cells)
[2] = test system: Human fetal astrocytes; experiment: as above; remark: listed apart in the source
[3] = test system: Human fetal astrocytes; experiment: synaptosome phagocytosis (pHrodo/calcein intensity ratio) relative to plate median of data wells; higher = more phagocytosis
[4] = test system: Human fetal astrocytes; experiment: as above; remark: listed apart in the source

| SMILES | loss of total cells ([1]; 1.39 µM) [%] | loss of total cells ([1]; 2.78 µM) [%] | loss of total cells ([1]; 5.56 µM) [%] | loss of total cells ([1]; 11.11 µM) [%] | loss of total cells ([1]; 22.22 µM) [%] | loss of total cells ([2]; 1.39 µM) [%] | loss of total cells ([2]; 2.78 µM) [%] | loss of total cells ([2]; 5.56 µM) [%] | loss of total cells ([2]; 11.11 µM) [%] | loss of total cells ([2]; 22.22 µM) [%] | synaptosome phagocytosis ([3]; 1.39 µM) [%] | synaptosome phagocytosis ([3]; 2.78 µM) [%] | synaptosome phagocytosis ([3]; 5.56 µM) [%] | synaptosome phagocytosis ([3]; 11.11 µM) [%] | synaptosome phagocytosis ([3]; 22.22 µM) [%] | synaptosome phagocytosis ([4]; 1.39 µM) [%] | synaptosome phagocytosis ([4]; 2.78 µM) [%] | synaptosome phagocytosis ([4]; 5.56 µM) [%] | synaptosome phagocytosis ([4]; 11.11 µM) [%] | synaptosome phagocytosis ([4]; 22.22 µM) [%] |
| --- | --- | --- | --- | --- | --- | --- | --- | --- | --- | --- | --- | --- | --- | --- | --- | --- | --- | --- | --- | --- |
| COc1cc2nc(N3CCN(C(=O)C4CCCO4)CC3)nc(N)c2cc1OC (stereo not given) [Terazosin hydrochloride] | -3.4 | 5.1 | -11.2 | -29.5 | -14 | -21.8 | -42.9 | 12.4 | 27.2 | -0.3 | 105 | 91.9 | 127 | 123 | 117 | 101 | 108 | 70.7 | 100 | 95.2 |
| O=C(O)c1cccnc1C(=O)O [Quinolinic acid] | -7.8 | -15.3 | -15.7 | -10.3 | -20.6 | -1.8 | 8.3 | 13.8 | 4.6 | -0.8 | 133 | 104 | 108 | 123 | 123 | 94.3 | 103 | 109 | 98.2 | 116 |
| C#CCN(C)Cc1ccccc1 [Pargyline hydrochloride] | -6.5 | -24.3 | -7.3 | -12.6 | -23 | -12.4 | -14.9 | 5.7 | -6.3 | 2.3 | 112 | 128 | 111 | 91.4 | 87.3 | 98.1 | 117 | 101 | 102 | 111 |
| CC(C[N+](C)(C)C)OC(N)=O (stereo not given) [Bethanechol chloride] | -13.9 | -10.8 | -2.3 | -13.9 | -11.7 | -24.9 | -24.7 | -1.5 | -18 | -5.7 | 108 | 100 | 117 | 99.7 | 90 | 125 | 117 | 115 | 87.3 | 96.8 |
| CCN(CC)CC#CCOC(=O)C(O)(c1ccccc1)C1CCCCC1 (stereo not given) [Oxybutynin Chloride] | -23.2 | 5 | 6.1 | 12.4 | 19.6 | 24.9 | -11.3 | 16.5 | 0.8 | 13.6 | 96.8 | 73.8 | 93.8 | 104 | 107 | 117 | 120 | 103 | 91.8 | 93.8 |
| Cc1nnc(SCC2=C(C(=O)O)N3C(=O)[C@@H](NC(=O)Cn4cnnn4)[C@H]3SC2)s1 [Cefazolin sodium] | -10.6 | -13.2 | -23.5 | -9.4 | 12.4 | 22.8 | -2.7 | -12.2 | 41.9 | -16.7 | 141 | 60.5 | 53.8 | 112 | 122 | 119 | 122 | 91.5 | 104 | 130 |
| CN1CCN(C2=Nc3cc(Cl)ccc3Nc3ccccc32)CC1 [Clozapine] | -18.3 | -15.6 | -17.1 | -5.8 | 20.7 | 9.2 | -9.8 | -3.5 | 3.7 | -17.3 | 103 | 106 | 82.7 | 71.7 | 63.4 | 112 | 93.7 | 108 | 98.6 | 84.2 |
| COc1ccccc1N1CCN(CCCNc2cc(=O)n(C)c(=O)n2C)CC1 [Urapidil hydrochloride] | -18.9 | -11.1 | -3.9 | 4.2 | -29.6 | 20.6 | 30 | 17.4 | 5.4 | 21.2 | 127 | 91 | 103 | 103 | 112 | 104 | 87.9 | 105 | 92.9 | 65.9 |
| O=C(O)c1ccccc1Nc1ccccc1 [N-Phenylanthranilic acid] | 0.4 | -2.7 | -5.1 | -1.3 | 1.9 | -33.6 | -11.9 | -11 | 10.8 | -25.9 | 120 | 114 | 90.5 | 94.2 | 79.8 | 112 | 116 | 103 | 101 | 121 |
| O=C1CN(/N=C/c2ccc(-c3ccc([N+](=O)[O-])cc3)o2)C(=O)N1 [Dantrolene sodium] | 5.4 | -12 | -3.3 | -6.7 | -3.2 | -33.9 | 9.5 | 16.1 | 46.9 | -2.2 | 89.8 | 105 | 98.5 | 127 | 86.1 | 103 | 79.9 | 105 | 101 | 116 |
| Cc1cc(C(C)(C)C)cc(C)c1CC1=NCCN1 [Xylometazoline hydrochloride] | -7.1 | -10.5 | 5.6 | -26.4 | -33.7 | -4.5 | -15.9 | -27.2 | -5.5 | 10 | 116 | 83.6 | 101 | 75.2 | 61.3 | 102 | 90.1 | 96.6 | 117 | 92.3 |
| O=C(/C=C/c1ccc(O)c(O)c1)OCCc1ccccc1 [Caffeic acid phenethyl ester] | -13.2 | -8.7 | 16.1 | 6.7 | 12.4 | 22 | 33.6 | 36.2 | 44.8 | 40.9 | 50.4 | 82.9 | 88.7 | 44.6 | 58.6 | 44.5 | 91.5 | 81.9 | 64.8 | 72.2 |
| CN1C(C)(C)CCCC1(C)C [Pempidine tartrate] | -31.8 | -10.4 | -16.4 | 4.8 | 9.3 | 11.2 | 6.1 | 6.5 | 2.1 | 12.9 | 97.9 | 111 | 109 | 92.7 | 97.1 | 84.5 | 85.9 | 101 | 102 | 97.4 |
| CCCCc1oc2ccccc2c1C(=O)c1cc(I)c(OCCN(CC)CC)c(I)c1 [Amiodarone hydrochloride] | -11 | -15.6 | -16.1 | 24.7 | 35.7 | -17.8 | 15.9 | -5.3 | 45.2 | 52.2 | 78.3 | 73.2 | 109 | 62.4 | 6.7 | 105 | 106 | 107 | 45.5 | 71.7 |
| OCCN1CCN(CCCN2c3ccccc3Sc3ccc(Cl)cc32)CC1 [Perphenazine] | -6.2 | 0.5 | -12.7 | 13.3 | 10.3 | -15.3 | 34.1 | 6.8 | 43 | 32.1 | 93.8 | 123 | 107 | 74.1 | 44.8 | 91.1 | 73.7 | 95.1 | 86.6 | 38.3 |
| CN1C(C(=O)Nc2ccccn2)=C(O)c2ccccc2S1(=O)=O [Piroxicam] | -14.7 | 11.3 | 15.5 | 6.7 | -1.9 | 2.1 | -16.6 | -0.7 | -15.3 | -12.5 | 79.9 | 93.5 | 114 | 105 | 95.8 | 89.3 | 85.3 | 79.5 | 94.4 | 99.2 |
| N=C(N)NC(=O)Cc1c(Cl)cccc1Cl [Guanfacine hydrochloride] | 7.9 | -41 | 8.2 | -13 | 9.6 | 19.4 | -39.7 | 25.5 | -9.5 | 9.7 | 123 | 88 | 117 | 70.1 | 91.6 | 106 | 93.1 | 117 | 113 | 106 |
| CCN(Cc1ccncc1)C(=O)C(CO)c1ccccc1 (stereo not given) [Tropicamide] | -25.2 | -25.4 | -10.7 | -14.9 | -4.1 | 10.4 | -21.4 | -7.7 | 4.3 | 0.3 | 71.8 | 104 | 82 | 112 | 106 | 108 | 98.9 | 136 | 154 | 106 |
| COc1ccc2cc([C@H](C)C(=O)O)ccc2c1 [(-)-Naproxen sodium] | -9 | 7.7 | 3.3 | -4.8 | 0 | -27.4 | -18 | -0.9 | -2.3 | 12.5 | 89 | 93.5 | 102 | 128 | 108 | 97.7 | 106 | 109 | 111 | 108 |
| N=c1nc(N2CCCCC2)cc(N)n1O [Minoxidil] | -0.5 | -12.2 | 13.6 | -7.6 | 2.8 | -34.9 | -17.4 | 11.1 | 2.3 | 10.8 | 114 | 106 | 128 | 124 | 143 | 98.9 | 76.3 | 72.9 | 90.1 | 92.8 |
| CN[C@H]1CC[C@@H](c2ccc(Cl)c(Cl)c2)c2ccccc21 [Sertraline hydrochloride] | -11.8 | -4.1 | -11.7 | 6.7 | 21.5 | -22.6 | -0.8 | 16.8 | 43 | 63.9 | 87.9 | 86.5 | 100 | 67.3 | 9 | 86.3 | 49 | 64.7 | 79.6 | 45.9 |

Given with bars between the fields: 2 of the compounds above.
SMILES | loss of total cells ([1]; 1.39 µM) [%] | loss of total cells ([1]; 2.78 µM) [%] | loss of total cells ([1]; 5.56 µM) [%] | loss of total cells ([1]; 11.11 µM) [%] | loss of total cells ([1]; 22.22 µM) [%] | loss of total cells ([2]; 1.39 µM) [%] | loss of total cells ([2]; 2.78 µM) [%] | loss of total cells ([2]; 5.56 µM) [%] | loss of total cells ([2]; 11.11 µM) [%] | loss of total cells ([2]; 22.22 µM) [%] | synaptosome phagocytosis ([3]; 1.39 µM) [%] | synaptosome phagocytosis ([3]; 2.78 µM) [%] | synaptosome phagocytosis ([3]; 5.56 µM) [%] | synaptosome phagocytosis ([3]; 11.11 µM) [%] | synaptosome phagocytosis ([3]; 22.22 µM) [%] | synaptosome phagocytosis ([4]; 1.39 µM) [%] | synaptosome phagocytosis ([4]; 2.78 µM) [%] | synaptosome phagocytosis ([4]; 5.56 µM) [%] | synaptosome phagocytosis ([4]; 11.11 µM) [%] | synaptosome phagocytosis ([4]; 22.22 µM) [%]
CCN(Cc1ccncc1)C(=O)C(CO)c1ccccc1 (stereo not given) [Tropicamide] | -25.2 | -25.4 | -10.7 | -14.9 | -4.1 | 10.4 | -21.4 | -7.7 | 4.3 | 0.3 | 71.8 | 104 | 82 | 112 | 106 | 108 | 98.9 | 136 | 154 | 106
COc1ccc2cc([C@H](C)C(=O)O)ccc2c1 [(-)-Naproxen sodium] | -9 | 7.7 | 3.3 | -4.8 | 0 | -27.4 | -18 | -0.9 | -2.3 | 12.5 | 89 | 93.5 | 102 | 128 | 108 | 97.7 | 106 | 109 | 111 | 108
